Experimental data: article PMC9648417
Results are given in words; binding and its absence hold for the method and conditions named. Binding seen in cells or lysates may run through a third protein. Some entries that bind do so weakly or less than the wild type. Sequences can lack the tags named with a protein.

Molecular target: T1, Schlafen family member 11 (SLFN11), Myc-FLAG-tagged, doxycycline-inducible (human) (UniProt Q7Z7L1)
T1 sequence: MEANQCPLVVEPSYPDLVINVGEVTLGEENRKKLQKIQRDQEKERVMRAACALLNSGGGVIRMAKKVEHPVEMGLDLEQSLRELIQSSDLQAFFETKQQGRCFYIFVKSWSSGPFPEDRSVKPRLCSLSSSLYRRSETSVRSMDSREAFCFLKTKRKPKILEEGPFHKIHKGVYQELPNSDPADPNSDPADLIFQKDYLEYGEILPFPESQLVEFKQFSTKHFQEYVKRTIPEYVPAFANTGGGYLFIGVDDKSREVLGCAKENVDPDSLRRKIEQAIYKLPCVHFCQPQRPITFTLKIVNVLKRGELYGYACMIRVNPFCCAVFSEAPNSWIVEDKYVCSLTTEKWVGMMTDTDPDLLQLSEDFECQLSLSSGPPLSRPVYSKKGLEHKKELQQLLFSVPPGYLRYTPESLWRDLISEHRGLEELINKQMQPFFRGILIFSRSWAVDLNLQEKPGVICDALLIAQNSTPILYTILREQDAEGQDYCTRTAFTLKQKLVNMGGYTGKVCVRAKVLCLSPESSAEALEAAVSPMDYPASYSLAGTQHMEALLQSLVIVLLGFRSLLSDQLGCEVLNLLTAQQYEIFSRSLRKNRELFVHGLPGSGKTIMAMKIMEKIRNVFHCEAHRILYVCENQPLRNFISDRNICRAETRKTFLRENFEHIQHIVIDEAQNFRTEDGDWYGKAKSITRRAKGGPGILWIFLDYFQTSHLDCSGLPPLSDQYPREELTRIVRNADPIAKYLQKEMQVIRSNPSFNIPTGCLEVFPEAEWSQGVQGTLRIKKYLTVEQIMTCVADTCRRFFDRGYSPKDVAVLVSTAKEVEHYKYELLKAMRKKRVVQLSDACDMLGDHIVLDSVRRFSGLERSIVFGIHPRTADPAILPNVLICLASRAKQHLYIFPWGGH
Assay: co-IP; IP of SLFN11-FLAG with FLAG-M2-conjugated sepharose beads from NP-40 lysates of DOX-induced LN229-SLFN11-Myc-FLAG cells, untreated or irradiated with 8 Gy for 30 minutes; immunoblot

B1: NFκB2 (NFκB2/p100) (protein, UniProt Q00653-1 1-900)
chain: MESCYNPGLDGIIEYDDFKLNSSIVEPKEPAPETADGPYLVIVEQPKQRGFRFRYGCEGPSHGGLPGASSEKGRKTYPTVKICNYEGPAKIEVDLVTHSDPPRAHAHSLVGKQCSELGICAVSVGPKDMTAQFNNLGVLHVTKKNMMGTMIQKLQRQRLRSRPQGLTEAEQRELEQEAKELKKVMDLSIVRLRFSAFLRASDGSFSLPLKPVISQPIHDSKSPGASNLKISRMDKTAGSVRGGDEVYLLCDKVQKDDIEVRFYEDDENGWQAFGDFSPTDVHKQYAIVFRTPPYHKMKIERPVTVFLQLKRKRGGDVSDSKQFTYYPLVEDKEEVQRKRRKALPTFSQPFGGGSHMGGGSGGAAGGYGGAGGGGSLGFFPSSLAYSPYQSGAGPMGCYPGGGGGAQMAATVPSRDSGEEAAEPSAPSRTPQCEPQAPEMLQRAREYNARLFGLAQRSARALLDYGVTADARALLAGQRHLLTAQDENGDTPLHLAIIHGQTSVIEQIVYVIHHAQDLGVVNLTNHLHQTPLHLAVITGQTSVVSFLLRVGADPALLDRHGDSAMHLALRAGAGAPELLRALLQSGAPAVPQLLHMPDFEGLYPVHLAVRARSPECLDLLVDSGAEVEATERQGGRTALHLATEMEELGLVTHLVTKLRANVNARTFAGNTPLHLAAGLGYPTLTRLLLKAGADIHAENEEPLCPLPSPPTSDSDSDSEGPEKDTRSSFRGHTPLDLTCSTKVKTLLLNAAQNTMEPPLTPPSPAGPGLSLGDTALQNLEQLLDGPEAQGSWAELAERLGLRSLVDTYRQTTSPSGSLLRSYELAGGDLAGLLEALSDMGLEEGVRLLRGPETRDKLPSTAEVKEDSAYGSQSVEQEAEKLGPPPEPPGGLCHGHPQPQVH
For B1, the binding was “binds”.
